Measurements as given in publication PMC6508740.
Results are given in words; binding and its absence hold for the method and conditions named. Binding calls can cover weak binding; strength is not graded here.

How the values were obtained:
GRXS17 (Arabidopsis) = molecular target: T1, GRXS17 (Arabidopsis) (UniProt Q9ZPH2); experiment: two-hybrid; yeast AH109; DRE2 forms in pGAD-T7 (AD), GRXS17 in pGBK-T7 (BD); growth on SD-TLH medium with 1 mM 3AT (Fig 4B)
T1 sequence: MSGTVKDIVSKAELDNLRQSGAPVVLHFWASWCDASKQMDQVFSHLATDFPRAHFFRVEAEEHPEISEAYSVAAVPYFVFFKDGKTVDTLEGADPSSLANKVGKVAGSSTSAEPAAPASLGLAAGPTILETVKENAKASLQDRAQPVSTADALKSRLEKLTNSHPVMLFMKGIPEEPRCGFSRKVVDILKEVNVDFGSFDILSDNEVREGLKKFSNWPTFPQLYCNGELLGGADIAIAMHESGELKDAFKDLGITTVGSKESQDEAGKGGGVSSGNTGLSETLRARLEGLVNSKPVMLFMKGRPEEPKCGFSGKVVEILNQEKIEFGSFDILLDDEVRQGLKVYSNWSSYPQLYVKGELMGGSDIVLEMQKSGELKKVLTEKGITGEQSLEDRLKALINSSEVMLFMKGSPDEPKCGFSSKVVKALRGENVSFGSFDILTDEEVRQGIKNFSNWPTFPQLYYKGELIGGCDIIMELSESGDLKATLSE

TAH18 = molecular target: T2, TAH18 (UniProt Q6NPS8); experiment: two-hybrid; yeast AH109; DRE2 forms in pGAD-T7 (AD), TAH18 or NBP35 in pGBK-T7 (BD); growth on SD-TL, SD-TLH and SD-TLHA (Fig 4A)
T2 sequence: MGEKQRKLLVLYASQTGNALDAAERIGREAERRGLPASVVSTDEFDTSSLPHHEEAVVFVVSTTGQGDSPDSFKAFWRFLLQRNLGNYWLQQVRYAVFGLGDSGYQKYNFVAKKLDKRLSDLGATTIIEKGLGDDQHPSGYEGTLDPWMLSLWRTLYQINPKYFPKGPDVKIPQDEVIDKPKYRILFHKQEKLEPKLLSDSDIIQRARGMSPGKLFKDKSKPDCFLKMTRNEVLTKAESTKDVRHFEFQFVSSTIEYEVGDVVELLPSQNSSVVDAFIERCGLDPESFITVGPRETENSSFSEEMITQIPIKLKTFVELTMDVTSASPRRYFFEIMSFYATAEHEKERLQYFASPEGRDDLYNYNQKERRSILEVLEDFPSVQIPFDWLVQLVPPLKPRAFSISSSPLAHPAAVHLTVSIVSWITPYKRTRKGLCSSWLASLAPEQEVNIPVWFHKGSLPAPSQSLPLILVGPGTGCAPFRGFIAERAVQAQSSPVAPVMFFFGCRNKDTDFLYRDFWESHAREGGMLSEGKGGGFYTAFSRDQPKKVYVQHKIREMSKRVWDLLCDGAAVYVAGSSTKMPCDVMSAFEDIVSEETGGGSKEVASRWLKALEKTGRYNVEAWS

NBP35 (Arabidopsis) = molecular target: T3, NBP35 (Arabidopsis) (UniProt Q8H1Q2); experiment: as above
T3 sequence: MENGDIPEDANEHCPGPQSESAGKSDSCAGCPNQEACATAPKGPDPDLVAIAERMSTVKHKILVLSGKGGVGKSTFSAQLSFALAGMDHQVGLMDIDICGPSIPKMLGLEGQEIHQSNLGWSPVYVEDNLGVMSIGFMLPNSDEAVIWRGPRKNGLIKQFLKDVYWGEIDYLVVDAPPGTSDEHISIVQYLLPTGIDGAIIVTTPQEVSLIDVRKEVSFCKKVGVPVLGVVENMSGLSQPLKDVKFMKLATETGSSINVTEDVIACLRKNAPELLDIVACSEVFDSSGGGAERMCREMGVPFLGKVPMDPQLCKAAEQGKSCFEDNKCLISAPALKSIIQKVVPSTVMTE

| Substance | binding (GRXS17 (Arabidopsis)) | binding (TAH18) | binding (NBP35 (Arabidopsis)) |
| --- | --- | --- | --- |
| DRE2 (wild type) (Arabidopsis) | binds | binds |  |
| DRE2-3 (Arabidopsis) |  | binds | binds |
| DRE2^Δ6 (Arabidopsis) | binds | binds | binds |
| DRE2^Δ75 (Arabidopsis) | no binding | binds | binds |
